Data reported in patent US20240117021A1.
Results are given in words; binding and its absence hold for the method and conditions named. Some results given as binding are weak or reduced against the parent protein; the word gives no strength.

How the values were obtained:
[1] = target: T1, complement component C1s (Homo sapiens) (UniProt P09871); assay: Biacore SPR potency, C1s immobilized; Batch 1 chelator study
T1 sequence: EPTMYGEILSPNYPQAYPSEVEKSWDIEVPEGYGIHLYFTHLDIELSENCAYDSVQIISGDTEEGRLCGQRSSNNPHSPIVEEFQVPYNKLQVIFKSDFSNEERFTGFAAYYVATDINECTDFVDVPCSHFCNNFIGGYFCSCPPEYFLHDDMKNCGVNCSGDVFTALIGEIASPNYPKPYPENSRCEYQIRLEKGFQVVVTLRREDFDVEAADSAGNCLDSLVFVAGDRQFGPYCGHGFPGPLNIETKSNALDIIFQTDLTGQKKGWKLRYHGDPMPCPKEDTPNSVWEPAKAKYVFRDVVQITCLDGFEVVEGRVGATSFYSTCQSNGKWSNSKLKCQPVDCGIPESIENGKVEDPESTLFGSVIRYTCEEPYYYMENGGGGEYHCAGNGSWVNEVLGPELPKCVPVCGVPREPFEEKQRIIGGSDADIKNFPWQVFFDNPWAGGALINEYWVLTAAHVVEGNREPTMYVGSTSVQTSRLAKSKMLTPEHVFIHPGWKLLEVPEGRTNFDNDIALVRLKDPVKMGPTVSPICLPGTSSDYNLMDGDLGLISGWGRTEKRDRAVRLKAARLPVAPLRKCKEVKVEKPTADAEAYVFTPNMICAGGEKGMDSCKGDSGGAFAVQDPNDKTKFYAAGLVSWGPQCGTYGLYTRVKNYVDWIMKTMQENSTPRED

[2] = target: T1, complement component C1s (Homo sapiens); assay: Biacore SPR potency, C1s immobilized; Batch 2 chelator study
[3] = target: T1, complement component C1s (Homo sapiens); assay: Biacore SPR potency, C1s immobilized; Batch 3 chelator study
[4] = target: T1, complement component C1s (Homo sapiens); assay: Biacore SPR potency, C1s immobilized; Batch 4 chelator study
[5] = target: T1, complement component C1s (Homo sapiens); assay: Biacore SPR potency, C1s immobilized; Batch 1 formulation study
[6] = target: T1, complement component C1s (Homo sapiens); assay: Biacore SPR potency, C1s immobilized; Batch 2 formulation study
[7] = target: T1, complement component C1s (Homo sapiens); assay: Biacore SPR potency, C1s immobilized; Batch 3 formulation study
[8] = target: T1, complement component C1s (Homo sapiens); assay: Biacore SPR potency, C1s immobilized; Batch 4 formulation study
[9] = target: T1, complement component C1s (Homo sapiens); assay: Biacore SPR, C1s immobilized on the chip; forced isomerization study
[10] = target: T1, complement component C1s (Homo sapiens); assay: Biacore SPR potency assay, C1s immobilized on the chip, samples diluted 1000-fold; Batch 1 chelator study
[11] = target: T1, complement component C1s (Homo sapiens); assay: Biacore SPR potency assay, C1s immobilized on the chip, samples diluted 1000-fold; Batch 2 chelator study
[12] = target: T1, complement component C1s (Homo sapiens); assay: Biacore SPR potency assay, C1s immobilized on the chip, samples diluted 1000-fold; Batch 3 chelator study
[13] = target: T1, complement component C1s (Homo sapiens); assay: Biacore SPR potency assay, C1s immobilized on the chip, samples diluted 1000-fold; Batch 4 chelator study
[14] = target: T1, complement component C1s (Homo sapiens); assay: Biacore SPR, C1s immobilized directly on the sensor chip; forced isomerization samples of SAR445088 (LC D32)
[15] = target: T1, complement component C1s (Homo sapiens); assay: Biacore SPR potency assay, C1s immobilized on the sensor chip, stored antibody samples diluted 1000-fold; read as % activity remaining
[16] = target: T1, complement component C1s (Homo sapiens); assay: Biacore SPR, C1s immobilised on the chip, stored antibody formulation diluted 1000-fold, activity relative to a calibration curve of the original sample
[17] = target: T1, complement component C1s (Homo sapiens); assay: Biacore SPR, C1s immobilized on the chip, stored samples of formulated antibody (histidine buffer pH 6.8; V = vial, P = PFS), activity relative to the unstressed sample
[18] = target: T1, complement component C1s (Homo sapiens); assay: Biacore SPR, C1s immobilized on the chip, stored samples of formulated antibody (histidine buffer pH 6.4, 6.8, 7.1; V = vial, P = PFS), activity relative to the unstressed sample

Measured: binding

B1: SAR445088 (antibody, human IgG4 S228P, kappa, V domains shown)
VH: QVQLVQSGAEVKKPGASVKLSCTASGFNIKDDYIHWVKQAPGQGLEWIGRIDPADGHTKYAPKFQVKVTITADTSTSTAYLELSSLRSEDTAVYYCARYGYGREVFDYWGQGTTVTVSS
VL: DIVLTQSPDSLAVSLGERATISCKASQSVDYDGDSYMNWYQQKPGQPPKILIYDASNLESGIPARFSGSGSGTDFTLTISSLEPEDFAIYYCQQSNEDPWTFGGGTKVEIKR
binds: [1] | [2] | [3] | [4] | [5] | [6] | [7] | [8] | [9] | [10] | [11] | [12] | [13] | [14] | [15] | [16] | [17] | [18]
